The nature of the data set: in vitro. The following applies: PAMPA, pH 7.4. On the technique in general: The PAMPA barrier holds no transporters, so it reflects passive diffusion.

These results are taken from ChEMBL document CHEMBL4330060, “Design and development of some phenyl benzoxazole derivatives as a potent acetylcholinesterase inhibitor with antioxidant property to enhance learning and memory” (Eur J Med Chem, 2019).

Regarding `COc1cc2c(cc1OC)C(=O)C(CC1CCN(Cc3ccccc3)CC1)C2` (stereo unspecified) [DONEPEZIL], the apparent permeability coefficient (Papp) (in general, the rate of passage across a membrane or cell layer, normalised by area and donor concentration) at 18 h came out at 7.54 ×10⁻⁶ cm/s.
